# Measured data: PubChem BioAssay AID504784 (Drosophila RNAi Screening Center, 2011)
# Assay: 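Fly genes whose silencing alters how much lipid cells keep in droplets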 (primary screen)
# Cells: Drosophila Kc167 embryonic cells
# Reagent: long dsRNA against Drosophila genes, about 250 ng dsRNA per well
# Duration: 4 days
# Treatment: cells fed 400 µM oleic acid bound to BSA
# Measured: 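Cells imaged and segmented; ratio of lipid droplet area to nuclear area, log-transformed, then normalised as a B-score over the screen; higher means more stored lipid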
# Direction: droplet/nuclear area B-score: higher = more stored lipid (overstorage)
# In all, the deposit lists about 17,000 reagents; shown is an unselected part of those with a known target gene and a result. 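Each column is one replicate's B-score; the combined score over replicates was not deposited, so single values may mislead.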 Names joined by + are all predicted targets of the reagent.
Target gene,amplicon,"droplet/nuclear area B-score, replicate 1","droplet/nuclear area B-score, replicate 2","droplet/nuclear area B-score, replicate 3"
CG5087,DRSC10479,0.215,0.767,
Sec6,DRSC06932,-0.0176,,
CG1902,DRSC06798,1.48,0.92,
CG14605,DRSC12549,-0.288,-2.68,
spdo,DRSC13988,-1.04,-2.74,
glob1,DRSC16959,-0.115,-0.0336,
CG16865,DRSC01904,-0.353,-1.38,
CG7789,DRSC16312,1.04,-1.02,
klg,DRSC13591,-0.0353,-0.481,
klg,DRSC16978,1.71,-0.223,
Srpk79D,DRSC11668,-0.00594,1.19,-1.3
Srpk79D,DRSC11856,-0.0265,0.421,
CG44774,DRSC18342,-1.25,-0.319,
CG8195,DRSC07103,0.31,-0.848,
Fas1,DRSC16669,-0.657,-0.858,
CG32176,DRSC10057,-0.872,-1.28,
CG32176,DRSC10058,0.968,2.89,
CG4709,DRSC02772,-1.83,-0.0159,
beta-Man,DRSC12208,0.636,0.22,0.37
beta-Man,DRSC12209,-0.283,-0.000777,
CG12024,DRSC08229,-0.651,1.78,
Ge-1,DRSC02938,-1.81,-2.27,
CG9445,DRSC05006,-0.706,-0.829,
dco,DRSC16929,1.05,,
CG12480,DRSC19460,1.03,0.0612,5.22
CG11980,DRSC14456,0.953,0.652,
CG2915,DRSC06842,-0.521,-0.0923,
Sas10,DRSC18355,-1.16,0.188,
CG17477,DRSC15239,0.294,0.368,
Mtap,DRSC06890,0.908,0.465,
CG14269,DRSC17912,0.38,1.08,
Gr58a,DRSC03910,-1.57,-0.864,
CG12129,DRSC06105,-0.0303,0.996,
Rbm13,DRSC17749,0.135,-2.47,
CG3199,DRSC15467,2.17,1.16,
fd102C,DRSC17203,1.05,0.14,
Hsepi,DRSC04986,-0.789,-1.38,
Lcp65Ac,DRSC11210,-0.845,0.034,
mbm,DRSC00319,0.952,0.0621,
Dhrs4,DRSC09773,-0.179,0.0473,
CG7990,DRSC19296,-0.274,-0.593,
CG7990,DRSC20069,1.78,1.73,
CG7990,DRSC23195,-0.0209,0.0616,
Polr1D + DCTN6-p27,DRSC02094,-0.721,0.374,
Gk1,DRSC08533,1.02,0.3,
Gk1,DRSC08534,-1.82,-0.711,
Obp56f,DRSC22270,-1.31,0.964,
CG14355,DRSC14818,7.97,0.00624,
CG17270,DRSC15209,0.0738,-0.326,
CG17191,DRSC15185,0.912,0.0771,
CG13713,DRSC08322,-3.11,-1.67,
ATbp,DRSC20906,0.74,1.71,
CG5618,DRSC11780,0.752,1.01,-1.49
anne,DRSC17103,1.48,2.03,
stumps,DRSC15332,0.892,0.439,
stumps,DRSC17073,-0.746,-5.47,
mod(mdg4),DRSC13478,0.263,0.0143,
mod(mdg4),DRSC15042,1.9,0.203,
mod(mdg4),DRSC17000,-0.298,0.128,
CG33007 (retired record),DRSC21845,-0.287,-1.96,
CG3500,DRSC04379,1.18,-0.638,
Smu1,DRSC15803,-1.03,-3.13,
Hexo2,DRSC18671,0.681,0.494,
mrj,DRSC22592,0.682,0.427,
SiaT,DRSC04494,-1.22,1.49,
Anp,DRSC14112,1.6,0.0111,
CG7102,DRSC02647,-0.0297,-0.993,
CG7102,DRSC03007,1.63,-0.015,
BicD,DRSC02006,0.796,0.66,
Ldaf1,DRSC17963,0.447,0.674,
eIF3d2,DRSC15651,0.166,-1.33,
CG3281,DRSC15470,0.299,-0.769,
mei-38,DRSC18564,-0.21,-1.12,
CG11426,DRSC11658,-0.536,1.1,
l(2)10685,DRSC00665,0.215,-0.389,
Mob2,DRSC09117,0.974,1.97,
Mob2,DRSC09119,0.28,0.633,
Mob2,DRSC09856,-0.138,0.134,
Mob2,DRSC23274,-1.07,0.488,
Sec63,DRSC11002,0.537,1.37,-3.91
Pde1c,DRSC02421,-0.151,0.0417,
Pde1c,DRSC02422,0.0125,-0.971,
Pde1c,DRSC02423,-1.26,1.12,
Pde1c,DRSC02424,3.03,0.161,
Pde1c,DRSC02425,0.969,0.34,
Pde1c,DRSC02426,-1.67,-0.467,

Records above whose target name starts with F or f:
Target gene,amplicon,"droplet/nuclear area B-score, replicate 1","droplet/nuclear area B-score, replicate 2","droplet/nuclear area B-score, replicate 3"
Fas1,DRSC16669,-0.657,-0.858,
fd102C,DRSC17203,1.05,0.14,
